# Assay results published in patent publication US20030195187A1, “Guanidino compounds” (CHIRON CORPORATION, priority 2002, published 2003).
# The chains behind the UniProt entries cited, without tags or fusion partners.
# UniProt P32245, whole entry, species assumed: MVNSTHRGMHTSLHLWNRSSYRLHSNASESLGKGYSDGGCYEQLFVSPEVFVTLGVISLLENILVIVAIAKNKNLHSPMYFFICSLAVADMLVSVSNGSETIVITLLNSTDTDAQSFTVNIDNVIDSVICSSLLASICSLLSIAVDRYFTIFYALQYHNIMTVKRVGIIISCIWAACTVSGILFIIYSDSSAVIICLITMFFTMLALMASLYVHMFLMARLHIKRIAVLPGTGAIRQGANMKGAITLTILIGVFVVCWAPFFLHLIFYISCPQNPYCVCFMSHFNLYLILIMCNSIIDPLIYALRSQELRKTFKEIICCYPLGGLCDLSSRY
# Some results were stated once for a whole list of compounds, not compound by compound.
# Target: MC4-R (Homo sapiens, UniProt P32245)
# Assay: cAMP Scintillation Proximity Assay in cells expressing MC4-R
# Type: cell-based
# Conditions: intercellular cAMP measured by SPA kit
row,SMILES,−log EC50
1,"CC(=O)N(C(=O)[C@H](N)Cc1ccc(C)cc1F)c1ccc(N/C(=N/[C@H]2C[C@H]3C[C@@H]([C@@H]2C)C3(C)C)N2C[C@@H](C)N[C@@H](C)C2)cc1 [Example 62, N-acetyl-N-{4-[((Z)-[(3R,5S)-3,5-dimethylpiperazin-1-yl]{[(1S,2S,3S,5R)-2,6,6-trimethylbicyclo[3.1.1]hept-3-yl]imino}methyl)amino]phenyl}-2-fluoro-4-methyl-D-phenylalaninamide]",above 3
2,"COc1ccc(C[C@@H](N)C(=O)N(C(C)=O)c2ccc(N/C(=N/[C@H]3C[C@H]4C[C@@H]([C@@H]3C)C4(C)C)N3C[C@@H](C)N[C@@H](C)C3)cc2)c(F)c1 [Example 63, N-acetyl-N-{4-[((Z)-[(3R,5S)-3,5-dimethylpiperazin-1-yl]{[(1S,2S,3S,5R)-2,6,6-trimethylbicyclo[3.1.1]hept-3-yl]imino}methyl)amino]phenyl}-2-fluoro-O-methyl-D-tyrosinamide]",above 3
3,"COc1ccc(C[C@H](N)C(=O)N(C(C)=O)c2ccc(N/C(=N/[C@H]3C[C@H]4C[C@@H]([C@@H]3C)C4(C)C)N3C[C@@H](C)N[C@@H](C)C3)cc2)c(F)c1 [Example 64, N-acetyl-N-{4-[((Z)-[(3R,5S)-3,5-dimethylpiperazin-1-yl]{[(1S,2S,3S,5R)-2,6,6-trimethyl-bicyclo[3.1.1]hept-3-yl]imino}methyl)amino]phenyl}-2-fluoro-O-methyl-L-tyrosinamide]",above 3
4,"CC(=O)N[C@H](Cc1cccc2c1OCO2)C(=O)Nc1ccc(N/C(=N/[C@H]2C[C@H]3C[C@@H]([C@@H]2C)C3(C)C)N2C[C@@H](C)N[C@@H](C)C2)cc1 [Example 65, N^2-acetyl-3-(1,3-benzodioxol-4-yl)-N^1-{4-[((Z)-[(3R,5S)-3,5-dimethylpiperazin-1-yl]-{[(1S,2S,3S,5R)-2,6,6-trimethylbicyclo[3.1.1]hept-3-yl]imino}methyl)amino]phenyl}-D-alaninamide]",above 3
5,"CC(=O)N(C(=O)[C@H](N)Cc1ccc(F)cc1F)c1ccc(N/C(=N/[C@H]2C[C@H]3C[C@@H]([C@@H]2C)C3(C)C)N2C[C@@H](C)N[C@@H](C)C2)cc1 [Example 66, N-acetyl-N-{4-[((Z)-[(3R,5S)-3,5-dimethylpiperazin-1-yl]{[(1S,2S,3S,5R)-2,6,6-trimethyl-bicyclo[3.1.1]hept-3-yl]imino}methyl)amino]phenyl}-2,4-difluoro-D-phenylalaninamide]",above 3
6,"COc1ccc(CCC(=O)Nc2ccc(N/C(=N/[C@H]3C[C@H]4C[C@@H]([C@@H]3C)C4(C)C)N3C[C@H](C)N[C@@H](C)C3)cc2)c(F)c1 [Example 71, N-{4-[((Z)-[(3S,5S)-3,5-dimethylpiperazin-1-yl]{[(1S,2S,3S,5R)-2,6,6-trimethylbicyclo[3.1.1]hept-3-yl]imino}methyl)amino]phenyl}-3-[2-fluoro-4-(methyloxy)phenyl]propanamide]",above 3
7,"CC1CCCCC1N=C(Nc1ccc(S(=O)(=O)NCCc2ccc(Cl)cc2Cl)cc1)N1CCN[C@@H](C)C1 (stereo partly drawn) [Example 72, (3S)-N-[4-({[2-(2,4-dichlorophenyl)ethyl]amino}sulfonyl)phenyl]-3-methyl-N′-(2-methylcyclohexyl)piperazin-1-carboximidamide]",above 3
8,"C[C@H]1CN(C(=NC2CCCCC2)Nc2ccc(S(=O)(=O)NCCc3ccc(Cl)cc3Cl)cc2)CCN1 [Example 73, (3S)-N′-cyclohexyl-N-[4-({[2-(2,4-dichlorophenyl)ethyl]amino}sulfonyl)phenyl]-3-methylpiperazin-1-carboximidamide]",above 3
9,"CC1CCC(N=C(Nc2ccc(S(=O)(=O)NCCc3ccc(Cl)cc3Cl)cc2)N2CCN[C@@H](C)C2)CC1 (stereo partly drawn) [Example 74, (3S)-N-[4-({[2-(2,4-dichlorophenyl)ethyl]amino}sulfonyl)phenyl]-3-methyl-N′-(4-methylcyclohexyl)piperazine-1-carboximidamide]",above 3
10,"C[C@@H]1[C@@H](N(C(=N)N2CCN[C@@H](C)C2)c2ccc(S(=O)(=O)NCCc3ccc(Cl)cc3Cl)cc2)C[C@H]2C[C@@H]1C2(C)C [Example 75, (3S)-N-[4-({[2-(2,4-dichlorophenyl)ethyl]amino}-sulfonyl)phenyl]-3-methyl-N-[(1S,2S,3S,5R)-2,6,6-trimethylbicyclo[3.1.1]hept-3-yl]piperazine-1-carboximidamide]",above 3
11,"C[C@H]1CN(C(=NC2CCCCC23CC3)Nc2ccc(S(=O)(=O)NCCc3ccc(Cl)cc3Cl)cc2)CCN1 (stereo partly drawn) [Example 76, (3S)-N-[4-({[2-(2,4-dichlorophenyl)ethyl]amino}-sulfonyl)phenyl]-3-methyl-N′-spiro[2.5]oct-4-ylpiperazine-1-carboximidamide]",above 3
12,"CC1CN(C(=NC2CC3CC(C2C)C3(C)C)Nc2ccc(NC(=O)C(N)Cc3ccc(Cl)cc3Cl)cc2)CCN1 [Example 79, (2S)-2-amino-3-(2,4-dichlorophenyl)-N-{4-[((Z)-[(3S)-3-methylpiperazin-1-yl]{[(1S,2S,3S,5R)-2,6,6-trimethylbicyclo[3.1.1]hept-3-yl]imino-56 methyl)amino]phenyl}propanamide]",above 3
13,"C[C@@H]1[C@@H](/N=C(/Nc2ccc(NC(=O)CCc3ccc(Br)cc3F)cc2)N2CCN[C@@H](C)C2)C[C@H]2C[C@@H]1C2(C)C [Example 80, 3-(4-bromo-2-fluorophenyl)-N-{4-[((Z)-[(3S)-3-methylpiperazin-1-yl]{[(1S,2S,3S,5R)-2,6,6-trimethylbicyclo[3.1.1]hept-3-yl]imino}methyl)amino]phenyl}propanamide]",above 3
14,"COc1ccc(CCC(=O)Nc2ccc(N/C(=N/[C@H]3C[C@H]4C[C@@H]([C@@H]3C)C4(C)C)N3CCN[C@@H](C)C3)cc2)c(OC)c1 [Example 82, 3-[2,4-bis(methyloxy)phenyl]-N-{4-[((Z)-[(3S)-3-methylpiperazin-1-yl]{[(1S,2S,3S,5R)-2,6,6-trimethylbicyclo[3.1.1]hept-3-yl]imino}methyl)amino]phenyl}propanamide]",above 3
15,"C[C@@H]1[C@@H](/N=C(\Nc2ccc(NC(=O)[C@@H](Cc3ccc(Cl)cc3)NC(=O)OC(C)(C)C)cc2)N2CCN[C@@H](C)C2)C[C@H]2C[C@@H]1C2(C)C [Example 83, 1,1-dimethylethyl (1R)-1-[(4-chlorophenyl)methyl]-2-({4-[((E)-[(3S)-3-methylpiperazin-1-yl]{[(1S,2S,3S,5R)-2,6,6-trimethylbicyclo[3.1.1]hept-3-yl]imino}methyl)amino]phenyl}amino)-2-oxoethylcarbamate]",above 3
16,"C[C@@H]1[C@@H](/N=C(\Nc2ccc(NC(=O)CCc3ccc(Br)cc3F)cc2)N2C[C@@H](C)N[C@@H](C)C2)C[C@H]2C[C@@H]1C2(C)C [Example 84, 3-(4-bromo-2-fluorophenyl)-N-{4-[((E)-[(3R,5S)-3,5-dimethylpiperazin-1-yl]{[(1S,2S,3S,5R)-2,6,6-trimethylbicyclo[3.1.1]hept-3-yl]imino}methyl)amino]phenyl}propanamide]",above 3
17,"CC1CN(C(=NC2CC3CC(C2C)C3(C)C)Nc2ccc(NC(=O)C(N)Cc3ccc(Cl)cc3)cc2)CCN1 [Example 86, (2R)-2-amino-3-(4-chlorophenyl)-N-{4-[((E)-[(3S)-3-methylpiperazin-1-yl]Δ[(1S,2S,3S,5R)-2,6,6-trimethylbicyclo[3.1.1]hept-3-yl]imino}methyl)amino]phenyl}propanamide]",above 3
